{"sequences": {"note": "By UniProt entry, the sequences of proteins in these tests, tags left out.", "UniProt P49736": "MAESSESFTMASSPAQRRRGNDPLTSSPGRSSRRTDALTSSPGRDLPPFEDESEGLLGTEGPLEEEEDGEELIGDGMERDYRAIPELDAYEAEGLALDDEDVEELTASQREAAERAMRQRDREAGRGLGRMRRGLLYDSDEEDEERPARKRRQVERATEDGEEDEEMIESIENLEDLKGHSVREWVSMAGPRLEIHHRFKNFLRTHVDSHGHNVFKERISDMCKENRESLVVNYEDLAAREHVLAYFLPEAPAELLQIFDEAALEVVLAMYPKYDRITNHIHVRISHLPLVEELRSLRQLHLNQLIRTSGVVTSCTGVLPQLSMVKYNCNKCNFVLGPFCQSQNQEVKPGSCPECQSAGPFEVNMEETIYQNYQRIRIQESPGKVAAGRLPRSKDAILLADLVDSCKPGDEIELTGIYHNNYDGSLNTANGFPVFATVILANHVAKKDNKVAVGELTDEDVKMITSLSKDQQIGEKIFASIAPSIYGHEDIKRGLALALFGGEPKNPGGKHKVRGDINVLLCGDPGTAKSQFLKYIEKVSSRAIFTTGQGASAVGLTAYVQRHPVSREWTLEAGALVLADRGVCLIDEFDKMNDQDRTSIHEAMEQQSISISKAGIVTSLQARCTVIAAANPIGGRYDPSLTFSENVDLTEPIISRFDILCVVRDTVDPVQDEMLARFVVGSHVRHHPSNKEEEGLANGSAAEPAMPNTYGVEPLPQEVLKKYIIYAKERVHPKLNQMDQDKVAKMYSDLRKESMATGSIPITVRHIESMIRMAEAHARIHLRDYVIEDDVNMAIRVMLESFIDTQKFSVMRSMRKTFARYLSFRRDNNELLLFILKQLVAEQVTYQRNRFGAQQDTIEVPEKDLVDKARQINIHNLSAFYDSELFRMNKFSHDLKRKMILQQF", "UniProt P08151": "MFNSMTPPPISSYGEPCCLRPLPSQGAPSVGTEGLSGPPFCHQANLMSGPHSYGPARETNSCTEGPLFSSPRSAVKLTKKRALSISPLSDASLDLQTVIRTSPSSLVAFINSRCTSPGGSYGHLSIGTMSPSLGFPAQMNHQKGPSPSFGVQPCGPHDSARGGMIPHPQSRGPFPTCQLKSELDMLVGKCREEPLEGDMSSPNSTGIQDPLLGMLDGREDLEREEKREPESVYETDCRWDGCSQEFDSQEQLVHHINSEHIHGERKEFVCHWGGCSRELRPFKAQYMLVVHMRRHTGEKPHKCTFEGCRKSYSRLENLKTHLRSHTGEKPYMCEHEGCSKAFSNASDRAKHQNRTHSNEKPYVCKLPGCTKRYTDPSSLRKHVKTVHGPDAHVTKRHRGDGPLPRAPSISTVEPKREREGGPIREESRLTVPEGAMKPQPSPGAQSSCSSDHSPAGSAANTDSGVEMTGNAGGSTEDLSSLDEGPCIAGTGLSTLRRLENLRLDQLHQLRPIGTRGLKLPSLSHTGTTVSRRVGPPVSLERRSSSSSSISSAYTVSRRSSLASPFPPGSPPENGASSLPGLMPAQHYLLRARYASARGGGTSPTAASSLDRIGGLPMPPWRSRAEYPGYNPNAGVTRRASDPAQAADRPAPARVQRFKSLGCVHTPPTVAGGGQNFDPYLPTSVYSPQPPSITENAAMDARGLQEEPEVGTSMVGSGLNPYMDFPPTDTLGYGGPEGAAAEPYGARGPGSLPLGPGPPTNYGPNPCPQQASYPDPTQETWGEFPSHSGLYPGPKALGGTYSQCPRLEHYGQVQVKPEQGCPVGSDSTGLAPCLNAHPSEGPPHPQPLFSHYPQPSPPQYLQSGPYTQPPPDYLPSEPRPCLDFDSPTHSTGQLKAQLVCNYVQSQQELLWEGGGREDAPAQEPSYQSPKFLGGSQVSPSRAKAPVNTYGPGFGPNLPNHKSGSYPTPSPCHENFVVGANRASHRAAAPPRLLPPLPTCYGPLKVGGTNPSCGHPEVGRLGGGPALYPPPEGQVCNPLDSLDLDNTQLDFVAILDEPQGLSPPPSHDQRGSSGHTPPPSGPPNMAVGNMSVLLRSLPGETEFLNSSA"}, "source": "paper PMC5348313", "assay_in_all_cases": "co-IP; endogenous proteins in HT29 cell lysate (Pierce lysis buffer with 1% NP-40); antibody or IgG control overnight at 4°C, Dynabeads Protein G 2 hr at 4°C, washed with TBST, Western blot; cells treated with DMSO (0.2%) or GANT61 (20 μM) for 4 hr", "key": {"[1]": {"target": "MCM2 (human (endogenous in HT29)) (UniProt P49736)"}, "[2]": {"target": "T1, ORC4 (human (endogenous in HT29)) (UniProt O43929)", "T1 sequence": "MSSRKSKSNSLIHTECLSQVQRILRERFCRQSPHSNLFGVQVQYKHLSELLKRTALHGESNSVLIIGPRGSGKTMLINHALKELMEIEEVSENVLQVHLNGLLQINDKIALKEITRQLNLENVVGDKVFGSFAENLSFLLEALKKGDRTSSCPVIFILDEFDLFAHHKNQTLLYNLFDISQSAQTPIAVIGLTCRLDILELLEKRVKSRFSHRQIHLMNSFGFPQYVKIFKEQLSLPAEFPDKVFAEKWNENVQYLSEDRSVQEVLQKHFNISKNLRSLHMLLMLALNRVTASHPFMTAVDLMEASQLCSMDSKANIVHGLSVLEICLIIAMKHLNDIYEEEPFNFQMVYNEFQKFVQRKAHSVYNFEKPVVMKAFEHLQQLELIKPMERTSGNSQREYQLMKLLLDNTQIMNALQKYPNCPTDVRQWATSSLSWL"}, "[3]": {"target": "GLI1 (human (endogenous in HT29)) (UniProt P08151)"}}, "note": "Results are given in words; binding and its absence hold for the method and conditions named. In cells and extracts the contact can be indirect. Some binding calls cover weakened binding; strength is not graded here.", "data": [{"molecule": "GLI1 (from UniProt P08151 1-1106)", "values": [{"measurement": "binding", "setting": "[1]", "value": "binds"}, {"measurement": "binding", "setting": "[2]", "value": "binds"}]}, {"molecule": "CDT1 (protein, UniProt Q9H211 1-546) MEQRRVTDFFARRRPGPPRIAPPKLACRTPSPARPALRAPASATSGSRKRARPPAAPGRDQARPPARRRLRLSVDEVSSPSTPEAPDIPACPSPGQKIKKSTPAAGQPPHLTSAQDQDTISELASCLQRARELGARVRALKASAQDAGESCTPEAEGRPEEPCGEKAPAYQRFHALAQPGLPGLVLPYKYQVLAEMFRSMDTIVGMLHNRSETPTFAKVQRGVQDMMRRRFEECNVGQIKTVYPASYRFRQERSVPTFKDGTRRSDYQLTIEPLLEQEADGAAPQLTASRLLQRRQIFSQKLVEHVKEHHKAFLASLSPAMVVPEDQLTRWHPRFNVDEVPDIEPAALPQPPATEKLTTAQEVLARARNLISPRMEKALSQLALRSAAPSSPGSPRPALPATPPATPPAASPSALKGVSQDLLERIRAKEAQKQLAQMTRCPEQEQRLQRLERLPELARVLRSVFVSERKPALSMEVACARMVGSCCTIMSPGEMEKHLLLLSELLPDWLSLHRIRTDTYVKLDKAADLAHITARLAHQTRAEEGL", "values": [{"measurement": "binding", "setting": "[3]", "value": "binds"}]}]}
